For five compounds, IC50 results are on record in publication PMC5780470, “Copper(I)-binding properties of de-coppering drugs for the treatment of Wilson disease. α-Lipoic acid as a potential anti-copper agent” (Scientific Reports, 2018).

One may read the IC50 as the point on the concentration scale where inhibition reaches its midpoint.

Molecules are shown by their SMILES.

This data set concerns Cox17 (Cu1Cox17, apo-Cox17_3S-S). As to the kind of experiment: ESI-MS demetallation of Cu1Cox17, hyperbolic fit. The data set is classed as binding. The following applies: C50 for Cu(I) extraction from 1 uM Cu1Cox17, not a protein affinity; 50 uM DTT, 20 mM ammonium acetate, pH 7.3, 25 °C.

On to `O=C(O)CCCC[C@@H](S)CCS` (racemic) [DLA, dihydrolipoic acid], for which half-maximal inhibition (IC50) required 0.498 ± 0.098 mM.
On to `CCN(CC)C(=S)S` [DETC, diethyl dithiocarbamate], for which the IC50 amounted to 0.00528 ± 0.00032 mM.
Compound `O=C(O)[C@@H](S)[C@@H](S)C(=O)O` [DMS, meso-2,3-dimercaptosuccinate] registered an IC50 of 0.00314 ± 0.00041 mM.
The same measure for `CC(C)(S)[C@@H](N)C(=O)O` [PA, D-penicillamine]: 1.47 ± 0.33 mM; for `NCCNCCNCCN` [TR, trientine]: 1.08 ± 0.13 mM.
